# According to PubChem BioAssay AID504585 (National Center for Advancing Translational Sciences (NCATS), 2011):
# Sequences of proteins named here, by UniProt entry; tags and fusion partners are left off.
# UniProt O00255, whole entry, looked up: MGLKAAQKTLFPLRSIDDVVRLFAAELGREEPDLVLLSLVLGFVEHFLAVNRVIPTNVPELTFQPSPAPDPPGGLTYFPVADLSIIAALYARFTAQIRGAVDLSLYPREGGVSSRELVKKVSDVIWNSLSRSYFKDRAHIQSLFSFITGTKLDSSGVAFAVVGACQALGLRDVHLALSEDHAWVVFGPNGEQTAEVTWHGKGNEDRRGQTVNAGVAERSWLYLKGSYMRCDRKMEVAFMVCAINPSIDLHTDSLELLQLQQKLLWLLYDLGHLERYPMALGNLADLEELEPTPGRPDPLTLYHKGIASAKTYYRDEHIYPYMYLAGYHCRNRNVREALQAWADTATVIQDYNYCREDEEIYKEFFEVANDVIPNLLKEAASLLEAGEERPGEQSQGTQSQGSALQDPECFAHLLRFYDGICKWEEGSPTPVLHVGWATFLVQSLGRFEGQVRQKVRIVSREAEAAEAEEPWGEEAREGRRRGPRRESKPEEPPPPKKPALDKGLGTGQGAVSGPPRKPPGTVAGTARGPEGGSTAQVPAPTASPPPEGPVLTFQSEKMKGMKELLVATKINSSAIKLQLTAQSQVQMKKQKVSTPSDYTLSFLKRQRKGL
# The shares of active, inactive and inconclusive entries below differ from those in the screen. Calls of active or inactive are those of the source.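 Rule for the calls: active = NMR saturation transfer binding signal to menin that a known MLL-derived binding peptide displaces; inconclusive = NMR binding signal present but the peptide does not displace it; inactive = no NMR binding signal.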
# Target: Menin (Homo sapiens) (UniProt O00255)
# Assay: Confirmation of Inhibitors Targeting the Menin-MLL Interaction in MLL Related Leukemias: Binding Confirmation with NMR Saturation Transfer Difference
# Settings: recombinant menin
# Description: qHTS Assay for Inhibitors Targeting the Menin-MLL Interaction in MLL Related Leukemias NIH Chemical Genomics Center [NCGC] NIH Molecular Libraries Probe Centers Network [MLPCN] MLPCN Grant: MH084875-01A1 Assay Submitter (PI): Jolanta Grembecka, Tomasz Cierpicki, University of Virginia Translocations of the MLL (Mixed Lineage Leukemia) gene are frequently found in human leukemias affecting both children and adults. Fusion of MLL to one of more than 60 genes results in generation of oncogenic proteins upregulating Hox genes, which are vital to blood cell development. Patients harboring fusion of the MLL gene suffer from aggressive leukemias and respond poorly to available therapies. All of the oncogenic fusion proteins have a preserved N-terminal fragment of MLL that has been identified to interact with menin. It has been recently discovered that association with menin is critical to the leukemogenic activity of the MLL fusion oncoproteins. Selective targeting of the menin-MLL interaction could provide an attractive therapeutic approach to develop novel drugs for MLL-related leukemias. Small molecules blocking the menin-MLL interaction should reverse the oncogenic potential of MLL fusion proteins. We have developed and optimized a fluorescence polarization-based assay for the identification of Menin-MLL inhibitors. The assay was run employing two different MLL-derived peptides. The present assay uses a 12 amino acid peptide labeled with fluorescein at its N-terminus. This peptide consists of the menin high affinity binding motif from MLL and is potently bound by menin. Another peptide with a mutated sequence, labeled with Texas Red, was used in parallel as a less stringent screen for inhibitors. The present assay uses an orthogonal technique to identify those compounds specifically interacting with the target protein.
# NMR samples for the saturation transfer difference (STD) experiments contained 2.5uM menin solution in 50 mM phosphate buffer, 50 mM NaCl, 1mM DTT, pH= 7.5, with 5% of D2O, final volume 150 uL. The compounds were added as stock solutions in DMSO to final 100 uM concentration and 5% DMSO. All NMR experiments were recorded using 600 MHz Bruker Avance III spectrometer at 25C. Samples for the competition STD experiments contained additional MBM1 peptide at final concentration of 25 uM and the measurements were carried out is the same way as described above for STD experiments.
row,SMILES,outcome
1,N#Cc1ccc(OCC(O)CN2CCN(C(c3ccccc3)c3ccccc3)CC2)cc1 (stereo not drawn),active; true
2,N=C1c2ccccc2CN1c1ccc(N2CCOCC2)c(S(=O)(=O)Nc2ccc(Cl)cc2)c1,inconclusive
3,COc1ccccc1NS(=O)(=O)c1cc(N2Cc3ccccc3C2=N)ccc1N1CCOCC1,inconclusive
4,CCc1cc2c(N3CCN(c4nnc(CC)s4)CC3)ncnc2s1,inconclusive
5,CC(=O)NC1C(=O)N(CCN2CCOCC2)c2ccc(Cl)cc21 (stereo not drawn),inactive; false
6,O=C1C(SCCO)=C(SCCO)C(=O)c2ccccc21,inconclusive
7,CCOc1cc(CNCCc2ccc(S(N)(=O)=O)cc2)ccc1OCc1ccccc1,active; true
8,CCN(CC)Cc1cc2[nH]c3c4ccc(Cl)cc4ncc3c2cc1OC,inactive; false
9,CCC(c1nnnn1Cc1ccc(F)cc1)N1CCN(C2CCCCC2)CC1 (stereo not drawn),active; true
10,COC(=O)[C@H](C)NC(=O)c1cc2c(cn1)[nH]c1ccccc12,inconclusive
11,CCOc1ccc2c(c1)C(NC(C)=O)C(=O)N2CCN1CCOCC1 (stereo not drawn),inactive; false
12,CCc1cc2c(N3CCN(C(=O)c4ccco4)CC3)ncnc2s1,inconclusive
13,C[C@H](NC(=O)c1cc2c(cn1)[nH]c1ccccc12)C(=O)O,inactive; false
14,O=C(CSc1nc(O)cc(=O)n1-c1ccccc1)c1ccc(Br)cc1,inconclusive
15,COc1ccccc1C(=O)Nc1ccnn1C1CCN(CC2CC=CCC2)CC1 (stereo not drawn),active; true
16,CN(C)c1ccc(C2CC(=O)C=C(Nc3ccccc3N)C2)cc1 (stereo not drawn),inactive; false
17,CCc1ccc2c(c1)C(NC(C)=O)C(=O)N2CCN1CCOCC1 (stereo not drawn),inactive; false
18,CN(C)C(CNc1ncnc2sc3c(c12)CCCCC3)c1ccco1 (stereo not drawn),inconclusive
19,COc1cc(-c2ccc(-[n+]3nc(-c4ccccc4)nn3-c3ccc([N+](=O)[O-])cc3)c(OC)c2)ccc1-[n+]1nc(-c2ccccc2)nn1-c1ccc([N+](=O)[O-])cc1,inconclusive
20,Cc1sc2ncnc(NC3CCN(Cc4ccccc4)CC3)c2c1C,active; true
21,O=C(C[N+]12CC[N+](CC(=O)c3ccc(F)cc3)(CC1)CC2)c1ccc(F)cc1,active; true
22,CCc1oc2ccccc2c1C(=O)c1cc(Br)c(O)c(Br)c1,inconclusive
23,CC(C)Sc1nc(N2CCOCC2)c2c3c(sc2n1)COC(C)(C)C3,inconclusive

# Copied from above, compounds 13 to 17
row,SMILES,outcome
13,C[C@H](NC(=O)c1cc2c(cn1)[nH]c1ccccc12)C(=O)O,inactive; false
14,O=C(CSc1nc(O)cc(=O)n1-c1ccccc1)c1ccc(Br)cc1,inconclusive
15,COc1ccccc1C(=O)Nc1ccnn1C1CCN(CC2CC=CCC2)CC1 (stereo not drawn),active; true
16,CN(C)c1ccc(C2CC(=O)C=C(Nc3ccccc3N)C2)cc1 (stereo not drawn),inactive; false
17,CCc1ccc2c(c1)C(NC(C)=O)C(=O)N2CCN1CCOCC1 (stereo not drawn),inactive; false
